These are yes or no findings as the source states them, for the method shown. Binding seen in cells or lysates may run through a third protein. Some entries that bind do so weakly or less than the wild type.

Sequences of proteins named here, by UniProt entry; tags and fusion partners are left off.
UniProt Q16665: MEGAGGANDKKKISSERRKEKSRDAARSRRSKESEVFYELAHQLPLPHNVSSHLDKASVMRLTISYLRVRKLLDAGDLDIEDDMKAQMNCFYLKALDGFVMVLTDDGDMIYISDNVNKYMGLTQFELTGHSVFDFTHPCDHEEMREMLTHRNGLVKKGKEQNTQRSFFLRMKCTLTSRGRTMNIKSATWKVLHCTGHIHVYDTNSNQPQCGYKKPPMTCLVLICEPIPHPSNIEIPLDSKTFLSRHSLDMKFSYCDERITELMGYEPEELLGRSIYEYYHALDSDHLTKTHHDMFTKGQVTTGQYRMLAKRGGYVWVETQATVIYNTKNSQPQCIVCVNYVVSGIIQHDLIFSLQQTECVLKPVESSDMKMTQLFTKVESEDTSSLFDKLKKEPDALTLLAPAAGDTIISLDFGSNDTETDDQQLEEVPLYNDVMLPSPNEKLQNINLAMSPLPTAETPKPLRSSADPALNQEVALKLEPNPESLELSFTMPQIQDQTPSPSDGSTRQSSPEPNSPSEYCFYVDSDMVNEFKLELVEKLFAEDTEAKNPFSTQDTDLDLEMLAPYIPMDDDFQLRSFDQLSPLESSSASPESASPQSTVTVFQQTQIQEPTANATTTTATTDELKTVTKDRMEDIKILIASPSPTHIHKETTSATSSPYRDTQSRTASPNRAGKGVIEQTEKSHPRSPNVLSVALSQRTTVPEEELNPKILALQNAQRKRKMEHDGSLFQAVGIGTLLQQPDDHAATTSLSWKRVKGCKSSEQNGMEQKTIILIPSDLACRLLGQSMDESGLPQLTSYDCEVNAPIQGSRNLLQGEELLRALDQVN
UniProt P11413: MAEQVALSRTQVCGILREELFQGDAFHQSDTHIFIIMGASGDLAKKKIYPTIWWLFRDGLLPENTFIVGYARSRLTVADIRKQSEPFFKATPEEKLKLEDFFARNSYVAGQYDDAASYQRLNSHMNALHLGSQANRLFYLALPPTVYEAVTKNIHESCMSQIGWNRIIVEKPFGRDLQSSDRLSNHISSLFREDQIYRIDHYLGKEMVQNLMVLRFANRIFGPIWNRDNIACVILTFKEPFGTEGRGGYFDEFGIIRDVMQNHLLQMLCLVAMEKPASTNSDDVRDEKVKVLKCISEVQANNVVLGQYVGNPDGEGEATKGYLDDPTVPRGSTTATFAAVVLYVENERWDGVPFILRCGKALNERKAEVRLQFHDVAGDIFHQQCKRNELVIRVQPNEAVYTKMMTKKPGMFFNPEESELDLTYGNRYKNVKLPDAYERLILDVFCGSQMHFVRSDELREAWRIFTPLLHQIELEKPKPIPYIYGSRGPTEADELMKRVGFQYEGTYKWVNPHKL

The text below walks through data of paper PMC12491235.

The assay addresses HIF-1α (human (endogenous in HuH-7)) (UniProt Q16665). As to the kind of experiment: co-IP; endogenous proteins in HuH-7 cells under hypoxia for 24 hours; normal rabbit IgG as control.

With “Glucose-6-phosphate dehydrogenase (from UniProt P11413 1-515)”, the binding entry is listed as “binds”.
